Results published in the supplement of paper PMC8866396.
± gives the standard deviation of the averaged measurements. The list shows a part of the results. Most values lie within the scatter of the assay; repeated measurements hardly agree.

What was measured:
IL-6-GFP PC-9GR = assay: IL-6-GFP fluorescence relative to DMSO control (fraction of control); higher = more IL-6-GFP expression; conditions: compound concentration: 10 uM; treatment time: 48 h
Experimental: (§1)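 IL-6-GFP-overexpressing PC-9 and PC-9GR EGFR-mutant lung cancer cells (3000 cells/well, 96-well) were treated for 48 h with each compound of the Selleck L2000 library at 10 uM. IL-6-GFP fluorescence was read on a high-content screening system, and viability by CCK-8 absorbance on a parallel plate set. Each value was normalised as compound well / DMSO control well; two independent replicates.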

IL-6-GFP PC-9 = assay: as above; conditions: compound concentration: 10 uM; treatment time: 48 h
Experimental: as §1

## O=C(O)COC(=O)Cc1ccccc1Nc1c(Cl)cccc1Cl [Aceclofenac]
IL-6-GFP PC-9GR
  IL-6-GFP fluorescence: 0.899 ± 0.047
IL-6-GFP PC-9
  IL-6-GFP fluorescence: 0.878 ± 0.19

## COc1ccc2cc1Oc1ccc(cc1)CC1c3c(cc4c(c3Oc3cc5c(cc3OC)CCN(C)C5C2)OCO4)CCN1C (stereo not given) [Cepharanthine]
IL-6-GFP PC-9GR
  IL-6-GFP fluorescence: 0.656 ± 0.21
IL-6-GFP PC-9
  IL-6-GFP fluorescence: 0.87 ± 0.051

## N.N.O=C([O-])C1(C(=O)[O-])CCC1.[Pt+2] [Carboplatin]
IL-6-GFP PC-9GR
  IL-6-GFP fluorescence: 0.915 ± 0.28
IL-6-GFP PC-9
  IL-6-GFP fluorescence: 0.813 ± 0.0089

## CNC(=O)c1ccc(N2C(=S)N(c3cnc(C#N)c(C(F)(F)F)c3)C(=O)C23CCC3)cc1F
IL-6-GFP PC-9GR
  IL-6-GFP fluorescence: 0.892 ± 0.15
IL-6-GFP PC-9
  IL-6-GFP fluorescence: 0.712 ± 0.1

## Cc1cc(Nc2ncc(Cl)c(Nc3ccccc3S(=O)(=O)C(C)C)n2)c(OC(C)C)cc1C1CCNCC1 [Ceritinib (LDK378)]
IL-6-GFP PC-9GR
  IL-6-GFP fluorescence: 0.537 ± 0.071
IL-6-GFP PC-9
  IL-6-GFP fluorescence: 0.487 ± 0.17

## Nc1c(CC(=O)[O-])cccc1C(=O)c1ccc(Br)cc1.[Na+] [Bromfenac Sodium]
IL-6-GFP PC-9GR
  IL-6-GFP fluorescence: 0.544 ± 0.11
IL-6-GFP PC-9
  IL-6-GFP fluorescence: 0.746 ± 0.078

## COc1cc(N2CCC(N3CCN(C)CC3)CC2)ccc1Nc1ncc(Cl)c(Nc2ccccc2P(C)(C)=O)n1
IL-6-GFP PC-9GR
  IL-6-GFP fluorescence: 0.419 ± 0.066
IL-6-GFP PC-9
  IL-6-GFP fluorescence: 0.588 ± 0.17

## CC(=O)Nc1cccc(-n2c(=O)n(C3CC3)c(=O)c3c(Nc4ccc(I)cc4F)n(C)c(=O)c(C)c32)c1
IL-6-GFP PC-9GR
  IL-6-GFP fluorescence: 0.977 ± 0.065
IL-6-GFP PC-9
  IL-6-GFP fluorescence: 0.847 ± 0.2

## CNCc1ccc(-c2[nH]c3cc(F)cc4c3c2CCNC4=O)cc1.O=P(O)(O)O
IL-6-GFP PC-9GR
  IL-6-GFP fluorescence: 1.75 ± 0.031
IL-6-GFP PC-9
  IL-6-GFP fluorescence: 2.53 ± 0.15

## Cc1cnc(Nc2ccc(OCCN3CCCC3)cc2)nc1Nc1cccc(S(=O)(=O)NC(C)(C)C)c1
IL-6-GFP PC-9GR
  IL-6-GFP fluorescence: 0.916 ± 0.026
IL-6-GFP PC-9
  IL-6-GFP fluorescence: 1.033 ± 0.0012
